Measurements published in the supplement of paper PMC10849652.
Some of the results follow.

Sequences of proteins named here, by UniProt entry; tags and fusion partners are left off. A change or cut given only in a name is not applied to a line headed by its entry.
UniProt Q9Y6N1: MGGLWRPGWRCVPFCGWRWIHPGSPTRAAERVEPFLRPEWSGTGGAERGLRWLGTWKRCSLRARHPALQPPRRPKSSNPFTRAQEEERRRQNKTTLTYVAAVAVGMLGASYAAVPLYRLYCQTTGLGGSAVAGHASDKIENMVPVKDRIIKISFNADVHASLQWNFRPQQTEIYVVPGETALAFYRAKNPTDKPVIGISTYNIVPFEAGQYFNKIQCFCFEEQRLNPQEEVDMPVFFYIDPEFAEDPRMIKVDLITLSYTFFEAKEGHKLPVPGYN
UniProt O75208: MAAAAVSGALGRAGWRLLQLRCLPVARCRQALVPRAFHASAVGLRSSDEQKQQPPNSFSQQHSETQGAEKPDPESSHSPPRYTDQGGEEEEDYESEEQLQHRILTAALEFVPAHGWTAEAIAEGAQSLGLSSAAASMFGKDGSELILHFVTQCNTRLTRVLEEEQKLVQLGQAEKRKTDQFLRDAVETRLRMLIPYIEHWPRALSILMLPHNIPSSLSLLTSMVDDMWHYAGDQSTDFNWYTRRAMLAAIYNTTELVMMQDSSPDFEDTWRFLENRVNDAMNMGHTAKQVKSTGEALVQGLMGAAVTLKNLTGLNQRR
UniProt Q5RI15: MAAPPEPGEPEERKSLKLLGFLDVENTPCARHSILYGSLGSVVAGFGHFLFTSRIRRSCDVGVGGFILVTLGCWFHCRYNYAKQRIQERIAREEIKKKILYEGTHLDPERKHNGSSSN
UniProt O14548: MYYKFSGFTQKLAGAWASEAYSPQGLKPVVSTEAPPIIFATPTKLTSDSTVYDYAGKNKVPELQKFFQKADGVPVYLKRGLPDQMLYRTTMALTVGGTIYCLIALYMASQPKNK
UniProt Q16630, whole entry, looked up: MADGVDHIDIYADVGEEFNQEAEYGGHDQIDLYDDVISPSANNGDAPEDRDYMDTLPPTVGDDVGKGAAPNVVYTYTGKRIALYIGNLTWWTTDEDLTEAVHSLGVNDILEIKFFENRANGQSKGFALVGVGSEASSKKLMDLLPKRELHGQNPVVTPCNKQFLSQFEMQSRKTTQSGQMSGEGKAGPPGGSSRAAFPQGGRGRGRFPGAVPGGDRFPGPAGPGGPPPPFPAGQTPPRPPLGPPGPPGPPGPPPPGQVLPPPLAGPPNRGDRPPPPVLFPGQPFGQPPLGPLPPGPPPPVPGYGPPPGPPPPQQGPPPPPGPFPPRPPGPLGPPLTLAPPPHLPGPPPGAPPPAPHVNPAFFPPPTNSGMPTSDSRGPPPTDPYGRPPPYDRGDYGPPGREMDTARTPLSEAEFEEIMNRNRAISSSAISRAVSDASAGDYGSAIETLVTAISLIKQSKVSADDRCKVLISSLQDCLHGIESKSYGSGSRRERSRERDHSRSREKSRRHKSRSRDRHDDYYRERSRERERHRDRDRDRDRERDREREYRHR
UniProt P24311, whole entry, looked up: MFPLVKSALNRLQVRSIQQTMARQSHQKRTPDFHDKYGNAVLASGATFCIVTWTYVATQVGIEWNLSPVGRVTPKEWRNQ
UniProt P23786: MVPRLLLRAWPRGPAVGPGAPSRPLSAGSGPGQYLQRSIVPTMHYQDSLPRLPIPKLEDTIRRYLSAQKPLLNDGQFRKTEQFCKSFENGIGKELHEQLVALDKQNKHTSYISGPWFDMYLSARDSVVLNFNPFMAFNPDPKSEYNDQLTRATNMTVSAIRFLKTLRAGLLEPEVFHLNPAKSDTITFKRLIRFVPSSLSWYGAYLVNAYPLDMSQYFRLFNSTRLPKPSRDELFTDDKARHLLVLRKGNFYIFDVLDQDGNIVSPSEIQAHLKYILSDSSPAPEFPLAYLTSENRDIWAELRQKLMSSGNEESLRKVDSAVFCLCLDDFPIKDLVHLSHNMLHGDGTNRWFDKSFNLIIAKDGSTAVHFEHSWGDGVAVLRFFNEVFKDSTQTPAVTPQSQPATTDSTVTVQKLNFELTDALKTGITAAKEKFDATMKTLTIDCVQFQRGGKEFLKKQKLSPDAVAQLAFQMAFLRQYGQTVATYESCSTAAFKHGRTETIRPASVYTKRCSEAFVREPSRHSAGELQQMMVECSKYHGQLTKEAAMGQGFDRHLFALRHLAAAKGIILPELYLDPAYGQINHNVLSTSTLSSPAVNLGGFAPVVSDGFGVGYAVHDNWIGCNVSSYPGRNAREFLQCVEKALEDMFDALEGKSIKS
UniProt Q9Y2Z9: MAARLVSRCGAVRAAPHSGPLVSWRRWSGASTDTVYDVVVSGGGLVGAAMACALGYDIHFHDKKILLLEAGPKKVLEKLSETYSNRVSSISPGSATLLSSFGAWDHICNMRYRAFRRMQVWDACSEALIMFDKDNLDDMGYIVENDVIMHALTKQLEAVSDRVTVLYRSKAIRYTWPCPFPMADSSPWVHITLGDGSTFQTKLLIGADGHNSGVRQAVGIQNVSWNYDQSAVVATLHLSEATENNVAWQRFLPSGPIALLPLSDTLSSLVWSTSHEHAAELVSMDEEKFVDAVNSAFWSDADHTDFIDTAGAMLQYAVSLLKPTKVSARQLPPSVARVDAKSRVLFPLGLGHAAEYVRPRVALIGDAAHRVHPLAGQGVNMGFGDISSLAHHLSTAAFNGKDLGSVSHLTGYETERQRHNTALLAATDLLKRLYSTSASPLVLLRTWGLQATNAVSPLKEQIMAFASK
UniProt P46109: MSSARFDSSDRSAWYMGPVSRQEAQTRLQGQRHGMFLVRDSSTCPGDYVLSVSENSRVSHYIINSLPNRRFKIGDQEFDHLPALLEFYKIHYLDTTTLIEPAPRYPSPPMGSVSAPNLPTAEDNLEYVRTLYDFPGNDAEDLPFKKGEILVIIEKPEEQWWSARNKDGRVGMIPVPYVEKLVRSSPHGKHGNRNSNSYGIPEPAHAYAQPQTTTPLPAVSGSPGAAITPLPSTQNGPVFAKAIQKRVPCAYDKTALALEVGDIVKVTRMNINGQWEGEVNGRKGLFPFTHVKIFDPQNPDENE
UniProt O75131: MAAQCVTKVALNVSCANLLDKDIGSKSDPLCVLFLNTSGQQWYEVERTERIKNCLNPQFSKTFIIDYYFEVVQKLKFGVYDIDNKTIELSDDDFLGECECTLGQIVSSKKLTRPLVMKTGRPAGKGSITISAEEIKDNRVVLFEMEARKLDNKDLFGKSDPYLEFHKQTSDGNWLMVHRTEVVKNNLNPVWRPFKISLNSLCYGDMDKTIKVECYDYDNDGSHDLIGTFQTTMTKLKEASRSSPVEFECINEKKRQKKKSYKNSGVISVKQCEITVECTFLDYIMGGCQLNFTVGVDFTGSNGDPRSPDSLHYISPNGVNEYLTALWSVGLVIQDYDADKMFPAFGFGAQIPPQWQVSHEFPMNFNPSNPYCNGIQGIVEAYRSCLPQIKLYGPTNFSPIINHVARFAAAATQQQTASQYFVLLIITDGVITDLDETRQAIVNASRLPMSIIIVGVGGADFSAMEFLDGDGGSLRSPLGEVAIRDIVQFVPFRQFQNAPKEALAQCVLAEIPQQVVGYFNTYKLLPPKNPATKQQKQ
UniProt Q92905, whole entry, looked up: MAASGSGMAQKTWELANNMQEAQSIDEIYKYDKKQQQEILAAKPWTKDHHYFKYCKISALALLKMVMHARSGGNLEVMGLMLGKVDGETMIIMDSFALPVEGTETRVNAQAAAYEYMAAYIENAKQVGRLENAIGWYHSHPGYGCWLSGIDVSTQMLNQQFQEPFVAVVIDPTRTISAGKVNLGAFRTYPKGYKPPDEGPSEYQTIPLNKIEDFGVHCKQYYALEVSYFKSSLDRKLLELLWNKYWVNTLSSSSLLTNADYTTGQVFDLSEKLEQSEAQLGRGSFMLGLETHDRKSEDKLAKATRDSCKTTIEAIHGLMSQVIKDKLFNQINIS
UniProt Q8IUI8: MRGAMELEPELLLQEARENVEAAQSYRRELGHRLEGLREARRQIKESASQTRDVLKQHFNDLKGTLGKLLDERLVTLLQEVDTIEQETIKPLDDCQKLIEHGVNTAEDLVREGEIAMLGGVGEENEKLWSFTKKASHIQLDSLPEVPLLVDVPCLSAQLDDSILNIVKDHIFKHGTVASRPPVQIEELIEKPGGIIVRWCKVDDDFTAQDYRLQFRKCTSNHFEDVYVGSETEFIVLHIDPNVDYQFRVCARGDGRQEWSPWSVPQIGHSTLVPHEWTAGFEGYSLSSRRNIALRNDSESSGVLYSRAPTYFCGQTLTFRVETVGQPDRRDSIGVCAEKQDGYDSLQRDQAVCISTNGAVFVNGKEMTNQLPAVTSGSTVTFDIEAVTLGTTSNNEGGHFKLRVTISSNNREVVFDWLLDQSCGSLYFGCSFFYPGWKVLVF
UniProt Q92828: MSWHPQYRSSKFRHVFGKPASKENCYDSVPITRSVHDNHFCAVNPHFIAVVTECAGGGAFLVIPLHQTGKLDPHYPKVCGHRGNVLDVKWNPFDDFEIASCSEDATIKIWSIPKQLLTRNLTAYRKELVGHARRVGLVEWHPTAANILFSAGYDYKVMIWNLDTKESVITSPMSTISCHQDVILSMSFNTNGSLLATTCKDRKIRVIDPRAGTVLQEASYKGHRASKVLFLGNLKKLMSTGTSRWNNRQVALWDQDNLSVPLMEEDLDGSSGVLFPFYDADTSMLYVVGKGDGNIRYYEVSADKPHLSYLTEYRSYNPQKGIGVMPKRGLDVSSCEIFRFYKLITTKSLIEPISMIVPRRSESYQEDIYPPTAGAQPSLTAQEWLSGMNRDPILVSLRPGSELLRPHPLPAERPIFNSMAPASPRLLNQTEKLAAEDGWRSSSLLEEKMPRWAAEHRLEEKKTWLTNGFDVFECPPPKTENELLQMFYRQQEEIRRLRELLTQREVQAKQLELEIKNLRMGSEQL
UniProt P02511: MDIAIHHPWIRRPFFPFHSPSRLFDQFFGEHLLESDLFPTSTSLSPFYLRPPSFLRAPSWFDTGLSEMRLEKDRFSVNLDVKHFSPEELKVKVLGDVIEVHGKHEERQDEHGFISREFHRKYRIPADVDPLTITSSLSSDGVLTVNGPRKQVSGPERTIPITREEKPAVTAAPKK
UniProt Q96HD1: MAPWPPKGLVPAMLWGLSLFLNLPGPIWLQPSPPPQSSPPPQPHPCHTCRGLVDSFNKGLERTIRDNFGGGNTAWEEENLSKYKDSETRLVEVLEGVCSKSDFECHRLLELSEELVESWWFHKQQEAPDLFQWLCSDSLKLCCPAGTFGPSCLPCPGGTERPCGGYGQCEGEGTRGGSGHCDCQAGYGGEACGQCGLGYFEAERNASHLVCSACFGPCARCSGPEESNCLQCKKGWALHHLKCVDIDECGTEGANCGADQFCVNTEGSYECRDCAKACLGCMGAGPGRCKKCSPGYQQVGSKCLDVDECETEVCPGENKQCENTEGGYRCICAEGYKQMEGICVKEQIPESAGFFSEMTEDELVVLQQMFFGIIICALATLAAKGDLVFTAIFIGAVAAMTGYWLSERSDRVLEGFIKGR
UniProt Q6QEF8, whole entry, looked up: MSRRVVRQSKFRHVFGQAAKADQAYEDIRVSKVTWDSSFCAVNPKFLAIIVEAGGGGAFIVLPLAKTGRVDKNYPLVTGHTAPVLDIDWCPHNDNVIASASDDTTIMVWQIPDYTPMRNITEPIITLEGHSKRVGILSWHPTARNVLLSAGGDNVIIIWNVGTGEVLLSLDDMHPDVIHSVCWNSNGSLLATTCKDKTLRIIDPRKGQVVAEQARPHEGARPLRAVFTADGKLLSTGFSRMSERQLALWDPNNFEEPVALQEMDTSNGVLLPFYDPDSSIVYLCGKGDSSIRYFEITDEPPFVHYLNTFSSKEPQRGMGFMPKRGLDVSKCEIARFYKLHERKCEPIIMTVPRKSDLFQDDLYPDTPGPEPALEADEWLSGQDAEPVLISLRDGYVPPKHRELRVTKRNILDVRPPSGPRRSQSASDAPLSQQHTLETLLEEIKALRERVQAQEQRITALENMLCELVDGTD
UniProt P49747: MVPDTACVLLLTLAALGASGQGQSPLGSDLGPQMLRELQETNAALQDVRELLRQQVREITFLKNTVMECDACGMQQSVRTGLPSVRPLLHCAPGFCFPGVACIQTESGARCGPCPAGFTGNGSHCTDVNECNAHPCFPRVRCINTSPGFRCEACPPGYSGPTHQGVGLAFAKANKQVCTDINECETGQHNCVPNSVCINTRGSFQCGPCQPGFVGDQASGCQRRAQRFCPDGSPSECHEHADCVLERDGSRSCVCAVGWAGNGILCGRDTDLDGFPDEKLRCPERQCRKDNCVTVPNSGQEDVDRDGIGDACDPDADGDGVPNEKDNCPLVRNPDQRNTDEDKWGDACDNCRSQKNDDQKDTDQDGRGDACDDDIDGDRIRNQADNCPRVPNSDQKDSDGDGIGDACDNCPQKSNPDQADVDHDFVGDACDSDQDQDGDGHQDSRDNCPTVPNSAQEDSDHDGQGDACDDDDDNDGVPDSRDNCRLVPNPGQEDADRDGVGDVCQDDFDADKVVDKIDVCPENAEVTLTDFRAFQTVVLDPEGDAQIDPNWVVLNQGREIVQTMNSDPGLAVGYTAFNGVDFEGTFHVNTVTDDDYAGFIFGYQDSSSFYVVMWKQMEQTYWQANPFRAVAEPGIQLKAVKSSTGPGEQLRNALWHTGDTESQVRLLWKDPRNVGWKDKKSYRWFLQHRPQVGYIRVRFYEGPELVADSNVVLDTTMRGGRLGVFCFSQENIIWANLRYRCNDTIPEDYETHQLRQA

Tests used:
Experiment in all cases: log2 fold change, soluble protein after heating vs DMSO (PISA); higher = thermal stabilisation; K562 cells, 10 uM, 30 min; active = over 0.2 and 3.5 SD of the protein, either way, in both replicates (recomputed)
[1] = compound: NC(=O)Nc1cc(-c2cccc(F)c2)sc1C(=O)N[C@H]1CCCNC1
Procedure, shortened: (§1)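 Thermal stability values are relative to control samples and come from duplicates. They are expressed as log2 fold changes. For measurement, K562 cells (2×10^6 cells/mL) received 10 μM compound for 30 min, and aliquots were heated for 3 min over 48°C-58°C, pooled, and extracted at 4°C in PBS with 0.5% NP-40. Soluble protein, the supernatant after 21,000xg for 90 min, was quantified by TMTpro 16plex LC-MS/MS with equalised channel sums.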

[2] = compound: NC(=O)c1cnc(N[C@@H]2CCCC[C@@H]2N)nc1Nc1cccc(-n2nccn2)c1
Procedure, shortened: as §1

[3] = compound: NC1(c2ccc(-c3nc4ccn5c(=O)[nH]nc5c4cc3-c3ccccc3)cc2)CCC1
Procedure, shortened: as §1

[4] = compound: NCC(=O)Nc1ccc(-n2nc(C(F)(F)F)cc2-c2ccc3c(ccc4ccccc43)c2)cc1
Procedure, shortened: as §1

entinostat = compound: Nc1ccccc1NC(=O)c1ccc(CNC(=O)OCc2cccnc2)cc1 [entinostat]
Procedure, shortened: as §1

vorinostat = compound: O=C(CCCCCCC(=O)Nc1ccccc1)NO [vorinostat]
Procedure, shortened: as §1

citarinostat = compound: O=C(CCCCCCNC(=O)c1cnc(N(c2ccccc2)c2ccccc2Cl)nc1)NO [citarinostat]
Procedure, shortened: as §1

silmitasertib = compound: O=C(O)c1ccc2c(c1)nc(Nc1cccc(Cl)c1)c1ccncc12 [silmitasertib]
Procedure, shortened: as §1

[5] = compound: O=C1NC(=O)C(c2cnc3ccccn23)=C1c1cn2c3c(cc(F)cc13)CN(C(=O)N1CCCCC1)CC2
Procedure, shortened: as §1

[6] = compound: c1cc(OCCN2CCCCC2)cc(-c2n[nH]c3ccc(-c4nnc[nH]4)cc23)c1
Procedure, shortened: as §1

| Target | log2 fold change [1] | log2 fold change [2] | log2 fold change [3] | log2 fold change [4] | log2 fold change (entinostat) | log2 fold change (vorinostat) | log2 fold change (citarinostat) | log2 fold change (silmitasertib) | log2 fold change [5] | log2 fold change [6] |
| --- | --- | --- | --- | --- | --- | --- | --- | --- | --- | --- |
| COX11 (UniProt Q9Y6N1) | inactive: -0.035 | inactive: 0.032 | inactive: -0.007 | inactive: -0.034 | inactive: 0.028 | inactive: 0.05 | inactive: 0.105 | inactive: 0.043 | inactive: -0.032 | inactive: -0.011 |
| COQ9 (UniProt O75208) | inactive: 0.02 | inactive: -0.002 | inactive: -0.151 | inactive: -0.032 | inactive: 0.045 | inactive: 0.028 | inactive: -0.013 | inactive: 0.021 | inactive: -0.103 | inactive: 0.008 |
| COX20 isoform 2 (UniProt Q5RI15) | inactive: -0.02 | inactive: -0.016 | active: 0.363 | inactive: -0.029 | inactive: -0.036 | inactive: -0.116 | inactive: 0.027 | inactive: -0.034 | inactive: -0.004 | inactive: 0.016 |
| COX5B (UniProt P10606) | inactive: 0.041 | inactive: 0.031 | inactive: 0.053 | inactive: -0.015 | inactive: -0.006 | inactive: -0.151 | inactive: 0.02 | inactive: -0.04 | inactive: -0.131 | inactive: 0.034 |
| CPD (UniProt O75976) | inactive: 0.002 | inactive: 0.032 | inactive: -0.101 | inactive: -0.008 | inactive: 0.016 | inactive: 0.019 | inactive: 0.018 | inactive: 0.032 | inactive: -0.034 | inactive: -0.111 |
| COX7A2L (UniProt O14548) | inactive: -0.025 | inactive: -0.044 | inactive: -0.078 | inactive: -0.069 | inactive: 0.049 | inactive: -0.1 | inactive: -0.031 | inactive: -0.006 | inactive: -0.076 | inactive: -0.035 |
| CPSF6 isoform 2 (UniProt Q16630) | inactive: -0.027 | inactive: -0.037 | inactive: -0.01 | inactive: 0.029 | inactive: -0.008 | inactive: -0.007 | inactive: 0.004 | active: -0.225 | inactive: -0.003 | inactive: -0.179 |
| COPS3 isoform 2 (UniProt Q9UNS2) | inactive: -0.129 | inactive: -0.364 | inactive: -0.005 | inactive: -0.272 | inactive: -0.007 | inactive: -0.169 | inactive: -0.14 | inactive: 0 | inactive: -0.597 | inactive: 0.011 |
| COMMD9 (UniProt Q9P000) | inactive: 0.014 | inactive: 0.001 | inactive: -0.102 | inactive: 0.064 | inactive: 0.073 | inactive: -0.07 | inactive: 0.023 | inactive: -0.009 | inactive: -0.109 | inactive: -0.082 |
| COX7B (UniProt P24311) | inactive: 0.094 | inactive: -0.001 | inactive: -0.028 | inactive: 0.02 | inactive: -0.054 | inactive: 0.012 | inactive: -0.013 | inactive: 0.039 | inactive: 0.036 | inactive: -0.026 |
| CPT2 (UniProt P23786) | inactive: -0.045 | inactive: -0.264 | inactive: 0.193 | inactive: -0.052 | inactive: 0.174 | inactive: -0.097 | inactive: -0.109 | inactive: -0.08 | inactive: 0.014 | inactive: 0.157 |
| COQ6 (UniProt Q9Y2Z9) | inactive: -0.018 | inactive: 0.002 | inactive: -0.05 | inactive: 0.011 | inactive: 0.05 | inactive: 0.034 | inactive: -0.019 | inactive: 0.058 | inactive: -0.027 | inactive: -0.053 |
| CRKL (UniProt P46109) | active: -1.11 | inactive: -0.019 | inactive: -0.015 | inactive: -0.005 | inactive: 0.004 | inactive: 0.023 | inactive: 0.005 | inactive: 0.066 | inactive: -0.031 | inactive: -0.064 |
| CPNE3 (UniProt O75131) | inactive: -0.052 | inactive: 0.081 | inactive: -0.004 | inactive: 0.18 | inactive: 0.023 | inactive: -0.016 | inactive: 0.029 | inactive: 0.056 | inactive: -0.07 | inactive: 0.031 |
| COPS5 (UniProt Q92905) | inactive: 0.011 | inactive: 0.012 | inactive: -0.036 | inactive: 0.001 | inactive: -0.014 | inactive: 0.03 | inactive: 0.043 | inactive: 0.004 | inactive: 0.012 | inactive: -0.023 |
| CRLF3 (UniProt Q8IUI8) | inactive: 0.016 | inactive: -0.233 | inactive: -0.165 | inactive: -0.105 | inactive: 0.025 | inactive: -0.023 | inactive: 0.047 | inactive: 0.104 | inactive: -0.003 | inactive: -0.057 |
| COPB1 (UniProt P53618) | inactive: -0.004 | inactive: -0.004 | inactive: -0.082 | inactive: -0.009 | inactive: 0.048 | inactive: 0.023 | inactive: 0.073 | inactive: 0.012 | inactive: -0.004 | inactive: -0.034 |
| CORO2A (UniProt Q92828) | inactive: 0.069 | inactive: -0.027 | active: -0.287 | inactive: -0.085 | inactive: -0.061 | inactive: 0.027 | inactive: -0.114 | inactive: -0.019 | – | inactive: -0.212 |
| CRYAB (UniProt P02511) | inactive: -0.183 | inactive: 0.119 | – | inactive: -0.09 | inactive: 0.07 | – | inactive: 0 | – | inactive: -0.037 | inactive: -0.168 |
| CRPPA (UniProt A4D126) | inactive: -0.04 | inactive: -0.019 | inactive: -0.013 | inactive: -0.004 | inactive: -0.043 | inactive: -0.057 | inactive: 0.028 | inactive: 0.004 | inactive: -0.037 | inactive: -0.011 |
| COPG2 (UniProt Q9UBF2) | inactive: 0.091 | inactive: -0.004 | inactive: -0.065 | inactive: -0.047 | inactive: 0.054 | inactive: 0.03 | inactive: 0.049 | inactive: -0.001 | inactive: -0.105 | inactive: -0.001 |
| CPSF3 (UniProt Q9UKF6) | inactive: 0.001 | inactive: -0.05 | inactive: -0.032 | inactive: -0.058 | inactive: -0.002 | inactive: 0.016 | inactive: 0.026 | inactive: 0.129 | inactive: -0.006 | inactive: -0.075 |
| COPS7A (UniProt Q9UBW8) | inactive: 0.038 | inactive: 0.04 | inactive: -0.057 | inactive: -0.031 | inactive: 0.005 | inactive: 0.075 | inactive: 0.049 | inactive: 0.016 | inactive: -0.01 | inactive: -0.017 |
| CRELD1 isoform 2 (UniProt Q96HD1) | inactive: -0.231 | inactive: -0.123 | inactive: -0.228 | inactive: -0.524 | inactive: -0.014 | inactive: -0.024 | inactive: -0.023 | inactive: 0.103 | inactive: 0.069 | inactive: -0.139 |
| CRTC2 (UniProt Q53ET0) | active: -0.814 | inactive: -0.001 | inactive: -0.13 | inactive: 0.038 | inactive: 0.004 | – | inactive: -0.099 | inactive: 0.092 | inactive: -0.125 | inactive: -0.143 |
| CORO6 isoform 5 (UniProt Q6QEF8) | inactive: -0.048 | inactive: -0.046 | – | inactive: -0.225 | inactive: 0.119 | – | – | – | inactive: -0.068 | – |
| COMP (UniProt P49747) | inactive: -0.246 | inactive: -0.075 | inactive: 0.14 | – | inactive: -0.166 | inactive: 0.352 | inactive: -0.112 | inactive: 0.166 | – | inactive: 0.311 |
| CSNK2A1 (UniProt P68400) | inactive: -0.062 | inactive: 0.014 | inactive: 0.007 | inactive: 0.05 | inactive: -0.015 | inactive: 0.046 | inactive: -0.013 | – | inactive: -0.027 | inactive: -0.045 |

A run of entries of the results above, as a working copy:

| Target | log2 fold change [1] | log2 fold change [2] | log2 fold change [3] | log2 fold change [4] | log2 fold change (entinostat) | log2 fold change (vorinostat) | log2 fold change (citarinostat) | log2 fold change (silmitasertib) | log2 fold change [5] | log2 fold change [6] |
| --- | --- | --- | --- | --- | --- | --- | --- | --- | --- | --- |
| COX20 isoform 2 (UniProt Q5RI15) | inactive: -0.02 | inactive: -0.016 | active: 0.363 | inactive: -0.029 | inactive: -0.036 | inactive: -0.116 | inactive: 0.027 | inactive: -0.034 | inactive: -0.004 | inactive: 0.016 |
| COX5B (UniProt P10606) | inactive: 0.041 | inactive: 0.031 | inactive: 0.053 | inactive: -0.015 | inactive: -0.006 | inactive: -0.151 | inactive: 0.02 | inactive: -0.04 | inactive: -0.131 | inactive: 0.034 |
| CPD (UniProt O75976) | inactive: 0.002 | inactive: 0.032 | inactive: -0.101 | inactive: -0.008 | inactive: 0.016 | inactive: 0.019 | inactive: 0.018 | inactive: 0.032 | inactive: -0.034 | inactive: -0.111 |
| COX7A2L (UniProt O14548) | inactive: -0.025 | inactive: -0.044 | inactive: -0.078 | inactive: -0.069 | inactive: 0.049 | inactive: -0.1 | inactive: -0.031 | inactive: -0.006 | inactive: -0.076 | inactive: -0.035 |
| CPSF6 isoform 2 (UniProt Q16630) | inactive: -0.027 | inactive: -0.037 | inactive: -0.01 | inactive: 0.029 | inactive: -0.008 | inactive: -0.007 | inactive: 0.004 | active: -0.225 | inactive: -0.003 | inactive: -0.179 |
| COPS3 isoform 2 (UniProt Q9UNS2) | inactive: -0.129 | inactive: -0.364 | inactive: -0.005 | inactive: -0.272 | inactive: -0.007 | inactive: -0.169 | inactive: -0.14 | inactive: 0 | inactive: -0.597 | inactive: 0.011 |
| COMMD9 (UniProt Q9P000) | inactive: 0.014 | inactive: 0.001 | inactive: -0.102 | inactive: 0.064 | inactive: 0.073 | inactive: -0.07 | inactive: 0.023 | inactive: -0.009 | inactive: -0.109 | inactive: -0.082 |
| COX7B (UniProt P24311) | inactive: 0.094 | inactive: -0.001 | inactive: -0.028 | inactive: 0.02 | inactive: -0.054 | inactive: 0.012 | inactive: -0.013 | inactive: 0.039 | inactive: 0.036 | inactive: -0.026 |
